Data as given in PubChem BioAssay AID493246 (Drosophila RNAi Screening Center, 2011)

- Purpose: 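Identify essential fly genes by loss of cell viability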 (primary screen)
- Cells: Drosophila Kc and S2R+ cells
- Reagent: long dsRNA against Drosophila genes
- Measured: 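Cell number per well after knock-down, printed as raw plate values; calls were based on per-plate z-scores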
- Reading the numbers: Kc cell number and S2R+ cell number: higher = more cells remaining
- Hit rule: 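Counted as a hit if cell number falls by a z-score of at least 3 within its plate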
In all, the deposit lists about 21,000 reagents; below is a random part of those that have a named target and a result. In the full data, 429 (2%) got an active call. 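Values are raw and not normalised between plates; calls rest on per-plate z-scores that were not deposited.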 Unmarked entries are inactive. The numbers tell different reagents against one gene apart. A plus sign joins genes that one reagent is predicted to hit. Not given: the amount of reagent, the time to read-out.

Sp1 #1 → Kc cell number, rep 1 = 1.42e6; Kc cell number, rep 2 = 1.69e6; S2R+ cell number, rep 1 = 1.04e6; S2R+ cell number, rep 2 = 1.12e6
Sp1 #2 → Kc cell number, rep 1 = 1.50e6; Kc cell number, rep 2 = 1.47e6; S2R+ cell number, rep 1 = 1.04e6; S2R+ cell number, rep 2 = 1.15e6
p120ctn → Kc cell number, rep 1 = 1.37e6; Kc cell number, rep 2 = 1.29e6; S2R+ cell number, rep 1 = 1.01e6; S2R+ cell number, rep 2 = 1.25e6
CG6674 → Kc cell number, rep 1 = 1.23e6; Kc cell number, rep 2 = 1.29e6; S2R+ cell number, rep 1 = 1.44e6; S2R+ cell number, rep 2 = 1.08e6

In a second layout: entries from further up
{"gene":"Sp1","reagent":1,"Kc cell number, rep 1":1.42e6,"Kc cell number, rep 2":1.69e6,"S2R+ cell number, rep 1":1.04e6,"S2R+ cell number, rep 2":1.12e6}
{"gene":"Sp1","reagent":2,"Kc cell number, rep 1":1.50e6,"Kc cell number, rep 2":1.47e6,"S2R+ cell number, rep 1":1.04e6,"S2R+ cell number, rep 2":1.15e6}

Further results:
CG5493 + CG5327 → Kc cell number, rep 1 = 1.61e6; Kc cell number, rep 2 = 1.62e6; S2R+ cell number, rep 1 = 1.24e6; S2R+ cell number, rep 2 = 1.33e6
Muc12Ea → Kc cell number, rep 1 = 1.56e6; Kc cell number, rep 2 = 1.71e6; S2R+ cell number, rep 1 = 1.05e6; S2R+ cell number, rep 2 = 1.25e6
nrm #1 → Kc cell number, rep 1 = 1.47e6; Kc cell number, rep 2 = 1.58e6; S2R+ cell number, rep 1 = 1.17e6; S2R+ cell number, rep 2 = 1.40e6
nrm #2 → Kc cell number, rep 1 = 1.46e6; Kc cell number, rep 2 = 1.57e6; S2R+ cell number, rep 1 = 1.19e6; S2R+ cell number, rep 2 = 1.37e6
nrm #3 → Kc cell number, rep 1 = 1.41e6; Kc cell number, rep 2 = 1.69e6; S2R+ cell number, rep 1 = 1.20e6; S2R+ cell number, rep 2 = 1.33e6
CG2865 → Kc cell number, rep 1 = 5.06e5; S2R+ cell number, rep 1 = 9.00e5
AANATL4 → Kc cell number, rep 1 = 1.52e6; Kc cell number, rep 2 = 1.57e6; S2R+ cell number, rep 1 = 1.11e6; S2R+ cell number, rep 2 = 1.24e6
CheB38c → Kc cell number, rep 1 = 1.65e6; Kc cell number, rep 2 = 1.81e6; S2R+ cell number, rep 1 = 1.40e6; S2R+ cell number, rep 2 = 3.08e5
CG33111 #1 → Kc cell number, rep 1 = 1.50e6; Kc cell number, rep 2 = 1.46e6; S2R+ cell number, rep 1 = 9.86e5; S2R+ cell number, rep 2 = 1.06e6
CG33111 #2 → Kc cell number, rep 1 = 1.47e6; Kc cell number, rep 2 = 1.53e6; S2R+ cell number, rep 1 = 9.98e5; S2R+ cell number, rep 2 = 1.06e6
